Cell number change and AC50 data for 59 compounds are collected here from PubChem BioAssay AID2685 (National Center for Advancing Translational Sciences (NCATS), 2010).

What is called AC50 is the concentration giving half of the maximal activity seen. Read a low AC50 as greater potency.

The list shows a part of the results. Further columns of the screen follow, without active or inactive calls. Most of these compounds were active or inconclusive in the main read-out, so they are no random draw. Potencies come from curve fits of mixed quality, noted in brackets.

The test in a line: qHTS Assay for Lipid Storage Modulators in Drosophila S3 Cells.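 For Cell number change: cells counted by Cell Tracker Red CMTPX staining in the red channel.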 The following applies: BODIPY lipid droplet fluorescence, 18-24 h; for cell number change: measured here: cell count max response, cells fed with added oleic acid. In short, it runs like this:
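Drosophila S3 cells got compounds at several concentrations plus oleic acid (400 uM solution). Laser-scanning cytometry with 488 nm excitation read lipid droplets at 500-530 nm and cells at 575-640 nm. Percent activity was relative to 20 uM Triacsin C.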
Background: Quantitative high-throughput screening tests each substance at several concentrations.

Setting [1] is: measured here: lipid fluorescence (Fed channel) AC50, cells fed with added oleic acid.
The mark [2] stands for this setting: measured here: cell number channel AC50, cells fed with added oleic acid.

With `Cc1cc(C)n(C)c(=O)c1C#N`, the cell number change is -24.4%. Moreover, the concentration at half-maximal activity (AC50) under setting [1] is 29.1 µM [falling, single point].

Consider `COc1ccc(C(=O)OCC(=O)Nc2c(C)n(C)n(-c3ccccc3)c2=O)cc1OC`, for which the cell number change was -17.7%. For the same compound, the concentration at half-maximal activity (AC50) under setting [1] was 29.1 µM [falling, single point]. `COc1ccc([N+](=O)[O-])cc1C(=O)C(=O)c1ccccc1`: the cell number change is -19%. For the same compound, under setting [1], the AC50 was 16.4 µM [falling, single point]. Turning to `CC(C(=O)NC1CCCC1)N(C(=O)c1snc(C(N)=O)c1N)c1ccc2c(c1)OCCO2` (stereo not given), the cell number change is -29%. Further, the concentration at half-maximal activity (AC50) under setting [1] was 20.6 µM [falling, single point]. As for `CCc1cccc(NC(=O)C2CCCN(c3cnccn3)C2)c1` (stereo not given), the cell number change was determined as 14%. The half-maximal activity concentration (AC50) under setting [1] was 6.51 µM [falling, single point].

On to `CC(=O)Nc1ccc(OCC(=O)NCc2ccccc2)cc1`, for which the cell number change turned out to be 26.1%. For the same compound, under setting [1], the AC50 was 6.51 µM [rising, single point]. For `Cc1nc2scc(-c3cccs3)c2c(=O)o1`, the cell number change came out at 22.5%. Further, the concentration at half-maximal activity (AC50) under setting [1] is 13 µM [rising, partial curve]. Take `COc1ccc(OCCNC(=O)/C=C/c2ccc([N+](=O)[O-])cc2)cc1`: the cell number change turned out to be 24%.

Consider `CCc1noc(C)c1C(=O)N(CCC(C)C)c1c(N)n(Cc2ccccc2)c(=O)[nH]c1=O`, for which the cell number change was -15.3%. Besides, the concentration at half-maximal activity (AC50) under setting [1] was 2.31 µM [rising, partial curve]. Regarding `O=C(c1ccc(Cl)cc1[N+](=O)[O-])N1CCN(c2ccccn2)CC1`, the cell number change is -9.24%. Moreover, the AC50 under setting [1] is 1.16 µM [falling, partial curve]. For `Nc1c(C(=O)Nc2ccc3c(c2)OCCO3)nnn1Cc1ccccc1Cl`, the cell number change was -24.9%. The AC50 under setting [1] is 18.4 µM [falling, single point].

Turning to `COc1ccccc1NS(=O)(=O)c1cc(NC(=O)CNC(=O)c2cc(C)cc(C)c2)ccc1C`, the cell number change was -10.2%. Besides, under setting [1], the AC50 is 5.8 µM [rising, full curve]. In the case of `COc1ccc(N(C)S(=O)(=O)c2cccc(C(=O)N(C)Cc3ccc(C)o3)c2)cc1`, the concentration at half-maximal activity (AC50) under setting [1] was 7.31 µM [rising, partial curve]. For `Cc1ccnc(NC(=O)c2cccc(S(=O)(=O)N3CCN(c4ccccc4)CC3)c2)c1`, the cell number change was found to be 2.83%. For the same compound, under setting [2], the AC50 was 6.51 µM [rising, single point]. For the compound `CCc1ccc(CNC(=O)C2CCCN(c3nc4ccccc4o3)C2)cc1` (stereo not given), the cell number change stood at 14.8%. Also, the AC50 under setting [1] is 5.17 µM [rising, single point]. With `C=C(C)Cn1c(SCC(=O)O)nc2c1c(=O)[nH]c(=O)n2C`, the cell number change was -45.3%. Besides, the AC50 under setting [2] is 4.11 µM [falling, full curve]. Also, the concentration at half-maximal activity (AC50) under setting [1] is 5.17 µM [falling, full curve]. On to `CC(C)(C(=O)O)n1cncn1`, for which the cell number change was -32.6%. Also, the half-maximal activity concentration (AC50) under setting [2] is 32.6 µM [falling, single point]. The AC50 under setting [1] was 0.116 µM [falling, full curve, poor fit]. Consider `CCc1ccccc1NC(=O)CNC(=O)c1cn(Cc2ccccc2)nc1-c1cccnc1`, for which the cell number change is -36.1%. Moreover, the AC50 under setting [2] is 32.6 µM [falling, single point]. The AC50 under setting [1] was 1.84 µM [falling, partial curve]. `CCOC(=O)c1cc(C)sc1NC(=O)CCC(=O)O`: the AC50 under setting [1] is 18.4 µM [falling, single point]. Consider `CCc1ccccc1NC(=O)c1ccc([N+](=O)[O-])s1`, for which the cell number change is -57.5%. Moreover, the AC50 under setting [2] was 29.1 µM [falling, single point]. Moreover, under setting [1], the AC50 was 29.1 µM [falling, single point].

As to `Cc1ccc(CN2CCC(n3nccc3NC(=O)CCOc3ccccc3)CC2)cc1C`, the AC50 under setting [1] was 0.116 µM [falling, single point]. On to `O=C(OCn1nnc2ccccc2c1=O)c1ccc(S(=O)(=O)N2CCOCC2)cc1`, for which the cell number change came out at 14.1%. The concentration at half-maximal activity (AC50) under setting [1] is 3.26 µM [falling, full curve, poor fit]. For the compound `COCCNC(=S)Nc1ccc2nc(N3CCN(C)CC3)cc(C)c2c1`, the cell number change was -2.7%. The AC50 under setting [1] was 29.1 µM [rising, single point]. In the case of `COc1ccc(C(=O)c2ccc(-c3ccc(OC)cc3)nc2)cc1`, the cell number change is -4.17%. For the compound `CC(C)(C)C(=O)O/N=C(\N)c1ccc(-c2csnn2)cc1`, the cell number change was 12.5%. Moreover, the AC50 under setting [1] was 6.51 µM [falling, single point]. Regarding `CCOC(=O)C1=C(C)N(CCCC(=O)NCc2ccc3c(c2)OCO3)C(=O)NC1c1ccc(Br)cc1` (stereo not given), the cell number change is 8.38%. In addition, the half-maximal activity concentration (AC50) under setting [1] is 0.731 µM [rising, full curve, poor fit]. For `CC(C)(C)OC(=O)N1Cc2ccccc2C[C@H]1C(=O)NCC(=O)NCC1CCCO1` (stereo not given in full), the cell number change was found to be 21.4%. Further, the AC50 under setting [1] was 1.3 µM [falling, full curve].

Turning to `CCN(CC)CCn1c2c(c(SCC(=O)Nc3cc(C)ccc3C)nc1=O)CCC2`, the cell number change is 24.5%. Besides, the half-maximal activity concentration (AC50) under setting [1] was 8.2 µM [rising, partial curve].

As to `COc1ccc(S(=O)(=O)NCC(=O)N(CC(=O)NCc2ccco2)Cc2ccc(F)cc2)cc1`, the cell number change was -25.7%. Moreover, under setting [1], the concentration at half-maximal activity (AC50) is 1.3 µM [falling, partial curve]. For `COCCOc1ccc(C(F)(F)F)cc1NC(=O)COC(=O)C1=COCCO1`, the half-maximal activity concentration (AC50) under setting [2] was 1.64 µM [rising, partial curve]. Turning to `CC(=O)c1ccc(OC(=O)COc2ccccc2Cl)cc1`, the cell number change is -39.2%. In addition, the half-maximal activity concentration (AC50) under setting [2] was 29.1 µM [falling, single point]. On to `C=CCn1c(Cc2cccs2)nnc1SCC(=O)c1cccc(Br)c1`, for which the cell number change turned out to be 5.46%. With `O=C(NNC(=O)C(c1ccccc1)c1ccccc1)c1ccccn1`, the cell number change was -28.1%. For the same compound, the half-maximal activity concentration (AC50) under setting [1] was 0.92 µM [falling, partial curve, poor fit]. `O=C(Nc1ccc(Br)cc1F)C1CCN(c2nnc(-n3cccc3)s2)CC1`: the cell number change is -0.167%. Moreover, the half-maximal activity concentration (AC50) under setting [1] is 29.1 µM [rising, single point]. For `CC1(C(=O)Nc2nnc(SCc3ccccc3)s2)Cc2ccccc2C(=O)O1` (stereo not given), the AC50 under setting [2] was 6.51 µM [rising, single point] and the AC50 under setting [1] was 1.03 µM [rising, full curve].

Take `CCOCc1nnc(NC(=O)COc2ccc3c(c2)OCO3)s1`: the cell number change amounted to 10.5%. Also, the AC50 under setting [1] is 29.1 µM [rising, single point]. Consider `Cc1ccc(C(C)C)c(OCC(=O)NC(=S)Nc2ccccc2N2CCOCC2)c1`, for which the cell number change is -16%. Besides, the AC50 under setting [1] is 23.1 µM [rising, partial curve]. In the case of `c1cn(CCCNc2ncnc3nc[nH]c23)cn1`, the cell number change is -71.6%. In addition, under setting [2], the AC50 is 29.1 µM [falling, single point]. Regarding `CC(=O)c1cccc(N(C(=O)c2ccco2)C(C(=O)NC2CCCC2)c2ccccc2F)c1` (stereo not given), the cell number change is -6.09%. The concentration at half-maximal activity (AC50) under setting [1] is 0.58 µM [falling, single point]. For `CC(OC(=O)c1ccc2c(=O)n3c(nc2c1)CCCCC3)C(=O)Nc1ccc(F)cc1Cl` (stereo not given), the cell number change stood at 13.7%. Besides, under setting [1], the AC50 is 25.9 µM [rising, single point]. As to `CCN1CCN(C(=S)c2ccc(Cl)c(Cl)c2)CC1`, the cell number change is 21.2%. Further, the AC50 under setting [2] is 0.206 µM [falling, full curve, poor fit]. Moreover, the half-maximal activity concentration (AC50) under setting [1] was 1.46 µM [falling, partial curve]. Take `Cc1ccc(S(=O)(=O)NC(=O)Nc2cc(C(C)(C)C)on2)cc1`: the cell number change was determined as 1.96%. The AC50 under setting [1] was 4.11 µM [rising, single point]. With `COc1ccc(N2CC(NC(=O)c3cccc4ccccc34)CC2=O)cc1OC` (stereo not given), the cell number change is 52.7%. Further, the AC50 under setting [2] is 16.4 µM [rising, single point]. Consider `COCCOC(=O)C1=C(C)NC(=O)NC1c1cccc2ccccc12` (stereo not given), for which the cell number change was -3.02%. In addition, the AC50 under setting [2] was 0.00517 µM [rising, full curve, poor fit]. Further, the AC50 under setting [1] is 18.4 µM [falling, single point]. With `CCOC(=O)c1ccc(N/C=C/C(=O)c2ccc(OC)c(OC)c2)cc1`, the cell number change was -27.3%. In addition, under setting [1], the half-maximal activity concentration (AC50) is 29.1 µM [falling, single point].

For `CC(C)C(C)NC(=O)Cn1cnc2c(oc3ccccc32)c1=O` (stereo not given), the cell number change is 0.451%. Under setting [1], the AC50 was 29.1 µM [falling, single point].

As for `Cn1ccc(C(=O)OCC(=O)Nc2cccc(Cl)c2)n1`, the cell number change was -21.8%. The concentration at half-maximal activity (AC50) under setting [1] is 4.61 µM [falling, single point].

`O=C(CSCc1c(F)cccc1Cl)NCc1ccco1`: the cell number change is -56.8%. Besides, the AC50 under setting [2] is 5.8 µM [falling, partial curve]. On to `CC(=O)NC(=S)NNC(=O)c1ccc(Br)cc1`, for which the concentration at half-maximal activity (AC50) under setting [1] is 6.51 µM [rising, single point].

On to `CCN(CC(=O)Nc1ccccc1C(F)(F)F)C(=O)c1cc(-c2cccs2)nn1-c1ccccc1`, for which the cell number change is -42.8%. For the same compound, under setting [2], the concentration at half-maximal activity (AC50) is 17.8 µM [falling, single point]. Also, under setting [1], the AC50 is 17.8 µM [falling, single point]. As to `CCN(CCNC(=O)C1CCN(S(=O)(=O)c2cccc3cccnc23)CC1)c1ccccc1`, the AC50 reads like this: under setting [2], 2.91 µM [rising, partial curve]; under setting [1], 6.51 µM [rising, single point]. As for `Cc1ccc(C)c(CSc2ccc3nnc(-c4ccccn4)n3n2)c1`, the cell number change was -4.77%. In addition, under setting [1], the AC50 was 6.51 µM [falling, single point]. In the case of `CCOC(=O)N1CCN(S(=O)(=O)c2cc(C)c(C)cc2C)CC1`, the cell number change was -26.8%. Moreover, the AC50 under setting [1] was 29.1 µM [falling, single point]. As for `CN1CCCC(OC(=O)/C(C#N)=C/c2ccccc2)C1` (stereo not given), the cell number change turned out to be 30.2%. Also, the AC50 under setting [2] was 29.1 µM [rising, single point]. As for `O=C(NCCc1nc2ccccc2[nH]1)/C(=C/c1ccc(F)cc1)NC(=O)c1ccco1`, the cell number change was determined as 39.4%. For the same compound, the concentration at half-maximal activity (AC50) under setting [2] is 25.9 µM [rising, single point]. On to `COc1ccc(CNC(=O)CN(Cc2ccco2)C(=O)CNS(=O)(=O)c2ccccc2)cc1`, for which the cell number change was -14.1%.

As to `COc1ccc(CCNC(=O)C(=O)c2cn(CC(=O)N3CCOCC3)c3ccccc23)cc1OC`, the cell number change was -14%. In addition, the concentration at half-maximal activity (AC50) under setting [1] was 3.26 µM [falling, partial curve].

In the case of `COc1ccccc1C(=O)NNC(=O)c1sccc1-n1cccc1`, the cell number change was 19.6%. The concentration at half-maximal activity (AC50) under setting [1] is 3.26 µM [rising, single point]. Consider `O=C(CCn1c(=O)oc2ccccc21)n1c(=O)oc2ccccc21`, for which the AC50 under setting [1] was 29.1 µM [rising, single point].
